2 molecules from US20250082754A1 (NANJING LEGEND BIOTECH, published 2025) can be followed below.

Results are given in words; binding and its absence hold for the method and conditions named. Binding can be weak; no strength is given.

For the test, the target named is Cyno CD33 (Macaca fascicularis). Put plainly: +/- column 'Cyno CD33' of the drawn table; legend: cell binding properties; assay not named on the sheet.

B1: AS142077 (scFv)
scFv (VL-linker-VH): SYELTQPSAMSVSLGETTRITCQGGNIESSYASWYQQKPGQAPALVIYEDSERPSRIPERFSGSSSGGTATLTISGAQAEDEADYYCQSADSSGYNPVFGGGTHLTVLGGGGSGGGGSGGGGSQVQLVESGGGLVQPGGSLRLSCAASGFTFSSYAMSWVRQAPGKGLEWVSGINSGGGSTYYADSVKGRFTISRDNAKNTLYLQLNSLKTEDTAMYYCAKHLLIIYSDYDVRGSEALDAWGQGTLVTVSS
notes: Format as for f1; also called anti-CD33 IgG1 AS142077; AS142077 scFv
Turning to B1, the binding entry is “binds”.

B2: AS188893 (scFv)
scFv (VL-linker-VH): SYELTQPSAVSVSLGQTARITCQGGNLGTSYVHWYQQKPGQAPVLVIYGDDSRPSGIPERFSGSSSGGTATLTISGAQAEDEADYYCQSYDSSSSVFGGGTHLTVLGGGGSGGGGSGGGGSQVQLQESGGGLVQPGGSLRLSCAASGFTFSNNWMYWVRQAPGKGLEWVSSIATGDGSTNSADSVKGRFTISRDNTKNMLYLQMNSLKSEDTALYYCAKGVNIDHDVGAGDYWGQGTQVTVSS
notes: Format as for f1; also called anti-CD33 IgG1 AS188893; AS188893 scFv
Regarding B2, the binding result is given as “binds”.
